Data taken from patent US7223902B1, “Method of producing recombinant Aspergillus niger β-glucosidase and an aroma spreading plant” (Yissum Research Development Company of the Hebrew …, priority 1999, dated 2007).

What follows are compounds tested on CB14 transgenic plant (Cel1 signal peptide + BGL1) (assay: SPMI-GC/MS analysis of flavor compounds in transgenic tobacco leaf extract, line CB14). Details: leaf extract incubated 9 hours at 37° C.
Design: species or system Nicotiana tabacum cv. Samson; key: “−” means no significant difference in concentration compared with wild type.; “+” means significant increase compared with the wild type.; “−−” means significant decrease compared with the wild type.; “++” means significant increase compared with a respective mark “+”

Compound	concentration of flavor compound in CB14 compared with wild type
CCCCCCCO [1-Heptanol]	−
CCCC=CC=O [2-Hexenal]	−
CCCCCCC(CO)CCCC (stereo not shown) [2-butyl-1-octanol]	−
CCCCC(CC)CO (stereo not shown) [2-ethyl-1-pexanol]	−
Cc1ccccc1O [2-methyl-phenol]	−
CC1=C(C=CCC=O)C(C)(C)CCC1 [4-[2,6,6-trimethyl-1-cyclohexen-1-yl]3-Buten-1-one]	+
Oc1ccc2ncccc2c1 [6-Quinolinol]	−
CCCCCC=O [Hexanal]	−^a
C=C(C)[C@H]1CC=C(C)CC1 [Limonene]	++
CC1CCC(C(C)C)C(O)C1 (stereo not shown) [Menthol]	+
CC(C)=CCC/C(C)=C\CO [Nerol]	−
CCCCCCCC/C=C\CCCCCCCCO [Oleyl alcohol]	−−^c
C=C1C=CCC(C)(C)C12CCC(C)O2 (stereo not shown) [Vitispirane]	−
